According to patent US20140163050A1, “Use of 1H-quinazoline-2,4-diones” (priority 2011, published 2014):

Test system: patients with PSE
Assay: PK-PD relationship, Emax model for SPR
Format: in vivo, human
Description: The mean SPR per eye condition and plasma PK concentrations of C-7 50, 100, and 15 mg dose groups is shown in FIG. 3, FIG. 4 and FIG. 5, respectively.
A PK-PD model was developed sequentially for the SPR data. Firstly a pharmacokinetic model was fitted using nonlinear mixed effects methodology in NONMEM version VI to describe the 13 patients with both PK and PD data. A 3 compartment disposition model with first order absorption and absorption lag time was selected to describe the pharmacokinetic time profile for each patient. The between patient variability was described by exponential random effects on each pharmacokinetic parameter, with all parameters assumed to be independent between individuals. The residual error model combined the additive and proportional error terms. The estimated pharmacokinetic parameters for each patient were used to generate each patient's PK profile as an input to the pharmacodynamic model.
For the Pharmacodynamic response, SPR, an Emax model was fitted on the logit transformed scale:
where Base is the baseline SPR on the logit scale, Emax is the maximum reduction in SPR on the logit scale, EC50 is the concentration at which the 50% of the maximum reduction is obtained and C is C-7 concentration. […]

## CC(C)c1cc2[nH]c(=O)n(NS(C)(=O)=O)c(=O)c2cc1-c1ccnn1C [Compound C-7, N-[7-Isopropyl-6-(2-methyl-2H-pyrazol-3-yl)-2,4-dioxo-1,4-dihydro-2H-quinazolin-3-yl]-methanesulfonamide]
SPR and PK concentration over time plots, 15, 50, 100 mg
  relationship between SPR Tmax and PK Tmax: linear relationship
All dose groups
  onset of PD effect relative to maximum plasma concentrations: either an hour before or around the same time when maximum plasma concentrations were achieved
